Results on one substance are retold here after paper PMC5627969.

Chains of the proteins cited; added tags and fusions are not shown.
UniProt Q14573: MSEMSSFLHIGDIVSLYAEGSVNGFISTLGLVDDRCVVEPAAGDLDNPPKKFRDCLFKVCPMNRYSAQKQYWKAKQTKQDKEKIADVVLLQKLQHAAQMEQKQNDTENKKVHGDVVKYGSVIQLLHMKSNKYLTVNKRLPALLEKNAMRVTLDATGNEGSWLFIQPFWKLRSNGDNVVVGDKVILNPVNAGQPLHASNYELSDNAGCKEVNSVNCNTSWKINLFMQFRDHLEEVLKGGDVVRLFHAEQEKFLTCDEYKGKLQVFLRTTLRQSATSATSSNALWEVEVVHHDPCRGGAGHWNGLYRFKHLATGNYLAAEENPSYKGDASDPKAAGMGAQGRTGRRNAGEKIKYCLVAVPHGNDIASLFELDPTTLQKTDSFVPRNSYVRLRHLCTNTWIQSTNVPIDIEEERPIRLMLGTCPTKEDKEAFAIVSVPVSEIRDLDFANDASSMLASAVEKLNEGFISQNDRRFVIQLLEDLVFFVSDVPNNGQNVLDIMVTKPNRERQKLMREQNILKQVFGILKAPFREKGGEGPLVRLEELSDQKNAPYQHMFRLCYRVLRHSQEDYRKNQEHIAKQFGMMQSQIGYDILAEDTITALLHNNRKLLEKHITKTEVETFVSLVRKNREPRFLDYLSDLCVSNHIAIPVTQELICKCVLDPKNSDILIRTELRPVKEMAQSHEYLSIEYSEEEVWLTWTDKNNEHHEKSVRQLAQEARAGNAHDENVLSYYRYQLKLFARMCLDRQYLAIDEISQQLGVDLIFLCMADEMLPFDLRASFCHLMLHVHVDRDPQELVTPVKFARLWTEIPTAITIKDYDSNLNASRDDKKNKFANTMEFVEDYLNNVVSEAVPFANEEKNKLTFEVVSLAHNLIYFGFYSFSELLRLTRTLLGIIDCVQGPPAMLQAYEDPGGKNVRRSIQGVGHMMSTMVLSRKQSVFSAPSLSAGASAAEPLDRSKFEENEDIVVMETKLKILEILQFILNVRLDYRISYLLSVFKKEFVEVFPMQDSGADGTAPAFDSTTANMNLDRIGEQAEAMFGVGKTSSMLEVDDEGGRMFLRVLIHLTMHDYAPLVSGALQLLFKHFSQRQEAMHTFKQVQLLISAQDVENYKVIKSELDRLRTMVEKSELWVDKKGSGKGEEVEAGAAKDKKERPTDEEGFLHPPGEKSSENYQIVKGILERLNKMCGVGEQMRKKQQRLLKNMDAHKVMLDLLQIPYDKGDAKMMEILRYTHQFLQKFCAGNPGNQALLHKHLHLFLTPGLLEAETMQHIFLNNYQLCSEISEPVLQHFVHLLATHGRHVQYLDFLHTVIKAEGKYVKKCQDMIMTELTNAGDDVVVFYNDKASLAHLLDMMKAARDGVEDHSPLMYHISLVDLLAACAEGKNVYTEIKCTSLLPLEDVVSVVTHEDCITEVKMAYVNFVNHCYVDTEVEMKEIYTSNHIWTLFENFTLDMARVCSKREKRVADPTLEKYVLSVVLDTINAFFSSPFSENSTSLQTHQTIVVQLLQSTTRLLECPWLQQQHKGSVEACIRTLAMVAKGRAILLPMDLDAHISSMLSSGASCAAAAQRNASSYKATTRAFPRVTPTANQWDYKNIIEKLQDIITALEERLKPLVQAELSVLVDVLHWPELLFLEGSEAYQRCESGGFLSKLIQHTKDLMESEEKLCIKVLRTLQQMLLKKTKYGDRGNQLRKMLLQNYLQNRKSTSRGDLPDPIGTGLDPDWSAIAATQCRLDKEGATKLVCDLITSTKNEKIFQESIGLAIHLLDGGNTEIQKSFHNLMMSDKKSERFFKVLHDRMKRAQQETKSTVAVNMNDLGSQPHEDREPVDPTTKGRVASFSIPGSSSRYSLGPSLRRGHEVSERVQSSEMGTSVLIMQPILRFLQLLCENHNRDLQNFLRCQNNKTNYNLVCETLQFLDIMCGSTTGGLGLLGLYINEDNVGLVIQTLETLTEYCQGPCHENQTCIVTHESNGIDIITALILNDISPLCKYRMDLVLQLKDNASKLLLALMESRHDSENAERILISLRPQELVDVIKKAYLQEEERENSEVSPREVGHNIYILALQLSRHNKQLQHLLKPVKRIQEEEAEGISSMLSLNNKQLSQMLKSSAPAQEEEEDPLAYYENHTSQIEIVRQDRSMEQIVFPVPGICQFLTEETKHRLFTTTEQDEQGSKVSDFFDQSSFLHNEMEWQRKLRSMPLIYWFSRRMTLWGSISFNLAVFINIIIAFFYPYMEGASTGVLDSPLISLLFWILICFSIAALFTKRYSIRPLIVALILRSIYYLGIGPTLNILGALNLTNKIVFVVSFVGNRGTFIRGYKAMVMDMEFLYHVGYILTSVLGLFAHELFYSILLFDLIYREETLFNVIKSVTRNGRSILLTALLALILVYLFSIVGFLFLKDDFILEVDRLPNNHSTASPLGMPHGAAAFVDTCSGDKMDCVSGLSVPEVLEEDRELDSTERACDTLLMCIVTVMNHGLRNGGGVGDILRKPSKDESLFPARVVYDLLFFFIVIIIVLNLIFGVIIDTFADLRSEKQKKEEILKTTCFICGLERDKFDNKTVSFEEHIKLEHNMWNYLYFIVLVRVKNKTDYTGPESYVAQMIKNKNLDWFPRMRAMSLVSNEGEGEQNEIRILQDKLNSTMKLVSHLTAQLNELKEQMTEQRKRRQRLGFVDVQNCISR

This test concerns the target T1, Flag-HA-tagged FBXL2 (human) (UniProt Q9UKC9).
T1 sequence: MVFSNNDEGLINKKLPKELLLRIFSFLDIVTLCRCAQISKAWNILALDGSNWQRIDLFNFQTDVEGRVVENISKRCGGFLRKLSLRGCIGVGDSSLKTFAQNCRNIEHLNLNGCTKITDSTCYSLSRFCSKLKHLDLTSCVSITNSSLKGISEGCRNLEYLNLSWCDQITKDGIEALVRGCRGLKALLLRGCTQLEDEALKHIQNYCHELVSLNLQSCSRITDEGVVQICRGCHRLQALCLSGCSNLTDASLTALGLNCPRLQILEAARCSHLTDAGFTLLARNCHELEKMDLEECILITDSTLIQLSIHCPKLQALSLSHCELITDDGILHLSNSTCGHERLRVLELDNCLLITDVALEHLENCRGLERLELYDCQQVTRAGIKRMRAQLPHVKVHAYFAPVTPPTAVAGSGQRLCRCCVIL
The test can be described thus: affinity purification with mass spectrometry; Flag-HA-tagged FBXL2 transiently expressed in HEK293T, MG132 (10 uM) 3 h before harvest, immunopurified, co-purifying proteins by mass spectrometry.

Results are given in words; binding and its absence hold for the method and conditions named. Binding seen in cells or lysates may run through a third protein. Here binding means that the protein was enriched with, or labelled near, the bait; the list need not be complete. Where a sequence is shown, tags or fusion partners need not be part of it.

Take “IP3R3 (endogenous, HEK293T) (from UniProt Q14573 1-2671) (receptor)”: the binding entry is reported as “binds”.
